From patent publication US9643952B2, “Pyridone compound” (KYOWA HAKKO KIRIN CO., LTD., priority 2012, dated 2017)
Some results were stated once for a whole list of compounds, not compound by compound.

Target: T1, human CCR10 (Homo sapiens, UniProt P46092)
T1 construct: expressed in transfected cells; host or cells: KJMGER8 cells (Namalwa cell-derived cell line); expression induced with 10 nmol/L beta-estradiol for 24 hr
T1 sequence (P46092 1-362): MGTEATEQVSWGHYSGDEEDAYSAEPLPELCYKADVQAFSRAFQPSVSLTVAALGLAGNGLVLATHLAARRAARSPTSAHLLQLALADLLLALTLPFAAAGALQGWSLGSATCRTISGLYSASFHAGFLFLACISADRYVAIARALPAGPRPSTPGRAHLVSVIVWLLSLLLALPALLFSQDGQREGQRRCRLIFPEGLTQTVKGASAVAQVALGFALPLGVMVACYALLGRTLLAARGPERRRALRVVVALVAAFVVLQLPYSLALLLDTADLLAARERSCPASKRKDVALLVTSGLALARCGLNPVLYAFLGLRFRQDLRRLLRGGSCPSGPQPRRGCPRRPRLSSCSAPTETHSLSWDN
Experiment: Calcium assay of human CCR10 (CCR10 antagonistic effect, CTACK-induced increase of intracellular calcium ion concentration in hCCR10G16 cells)
Assay type: cell-based
Settings: human CCR10-expressing hCCR10G16 cells, 300 nmol/L human recombinant CTACK, Fluo-3, FDSS; read-out: concentration at which the increase in the calcium ion concentration is inhibited by not less than 50%

IC50 | SMILES
≤ 1000 nM | COc1ccc(Cl)cc1Nc1c(C(=O)N2CCC(c3ccc(F)cc3)CC2)cn(C)c(=O)c1Cl [Compound 57, 3-chloro-4-(5-chloro-2-methoxyphenylamino)-5-[4-(4-fluorophenyl)piperidine-1-carbonyl]-1-methylpyridin-2(1H)-one]
≤ 1000 nM | COc1ccc(Nc2c(C(=O)N3CCC(c4ccc(F)cc4)CC3)cn(C3CC3)c(=O)c2Cl)c(C)c1 [Compound 73, 3-chloro-1-cyclopropyl-5-[4-(4-fluorophenyl)piperidine-1-carbonyl]-4-(4-methoxy-2-methylphenylamino)pyridin-2(1H)-one]
≤ 1000 nM | Cn1cc(C(=O)N2CCC(c3ccc(F)cc3)CC2)c(Nc2ccc(Cl)cc2F)c(Cl)c1=O [Compound 130, 3-chloro-4-(4-chloro-2-fluorophenylamino)-5-[4-(4-fluorophenyl)piperidine-1-carbonyl]-1-methylpyridin-2(1H)-one]
≤ 1000 nM | CCn1cc(C(=O)N2CCC(c3ccc(F)cc3)CC2)c(Nc2ccc(F)cc2F)c(Cl)c1=O [Compound 139, 3-chloro-4-(2,4-difluorophenylamino)-1-ethyl-5-[4-(4-fluorophenyl)piperidine-1-carbonyl]pyridin-2(1H)-one]
≤ 1000 nM | Cc1ccc(Cl)cc1Nc1c(C(=O)N2CCC(c3ccc(F)cc3)CC2)cn(CC(F)(F)F)c(=O)c1Cl [Compound 190, 3-chloro-4-(5-chloro-2-methylphenylamino)-5-[4-(4-fluorophenyl)piperidine-1-carbonyl]-1-(2,2,2-trifluoroethyl)pyridin-2(1H)-one]
≤ 1000 nM | Cc1ccc(Cl)cc1Nc1c(C(=O)N2CCC3(CC2)OCc2ccccc23)cn(C)c(=O)c1Cl [Compound 201, 3-chloro-4-(5-chloro-2-methylphenylamino)-1-methyl-5-[3H-spiro(isobenzofuran-1,4′-piperidine)-1′-ylcarbonyl]pyridin-2(1H)-one]
≤ 1000 nM | Cc1c(Nc2ccc3c(c2)COC3)c(C(=O)N2CCC(c3ccc(F)cc3)CC2)cn(Cc2cccnc2)c1=O [Compound 207, 4-(1,3-dihydroisobenzofuran-5-ylamino)-5-[4-(4-fluorophenyl)piperidine-1-carbonyl]-3-methyl-1-(pyridin-3-ylmethyl)pyridin-2(1H)-one]
≤ 1000 nM | CCS(=O)(=O)NC(=O)Cn1cc(C(=O)N2CCC(c3ccc(F)cc3)CC2)c(Nc2cc(C)ccc2Cl)cc1=O [Compound 2, 2-{4-(2-chloro-5-methylphenylamino)-5-[4-(4-fluorophenyl)piperidine-1-carbonyl]-2-oxopyridin-1(2H)-yl}-N-(ethylsulfonyl)acetamide]
≤ 1000 nM | Cc1ccc(Cl)cc1Nc1c(C(=O)N2CCC(c3ccc(F)cc3)CC2)cn(C)c(=O)c1C [Compound 121, 4-(5-chloro-2-methylphenylamino)-5-[4-(4-fluorophenyl)piperidine-1-carbonyl]-1,3-dimethylpyridin-2(1H)-one]
≤ 1000 nM | Cn1cc(C(=O)N2CCC(c3ccc(F)cc3)CC2)c(NCc2ccccc2)c(N)c1=O [Compound 218, 3-amino-4-(benzylamino)-5-[4-(4-fluorophenyl)piperidine-1-carbonyl]-1-methylpyridin-2(1H)-one]
≤ 1000 nM | Cc1cc(Cl)ccc1Nc1c(C(=O)N2CCC(c3ccc(F)cc3)CC2)cn(C)c(=O)c1Cl [Compound 40, 3-chloro-4-(4-chloro-2-methylphenylamino)-5-[4-(4-fluorophenyl)piperidine-1-carbonyl]-1-methylpyridin-2(1H)-one]
≤ 1000 nM | Cc1ccc(Cl)c(Nc2cc(=O)n(Cc3cc(C)on3)cc2C(=O)N2CCC(c3ccc(F)cc3)CC2)c1 [Compound 15, 4-(2-chloro-5-methylphenylamino)-5-[4-(4-fluorophenyl)piperidine-1-carbonyl]-1-[(5-methylisoxazol-3-yl)methyl]pyridin-2(1H)-one]
≤ 1000 nM | Cc1ccc(F)c(Nc2c(C(=O)N3CCC(c4ccc(F)cc4)CC3)cn(C)c(=O)c2Cl)c1 [Compound 118, 3-chloro-4-(2-fluoro-5-methylphenylamino)-5-[4-(4-fluorophenyl)piperidine-1-carbonyl]-1-methylpyridin-2(1H)-one]
≤ 1000 nM | Cn1cc(C(=O)N2CCC(c3ccc(F)cc3)CC2)c(Nc2ccc(Cl)cc2C#N)c(Cl)c1=O [Compound 116, 5-chloro-2-{3-chloro-5-[4-(4-fluorophenyl)piperidine-1-carbonyl]-1-methyl-2-oxo-1,2-dihydropyridin-4-ylamino}benzonitrile]
≤ 1000 nM | Cn1cc(C(=O)N2CCC(c3ccc(F)cc3)CC2)c(Nc2ccc3ncsc3c2)c([N+](=O)[O-])c1=O [Compound 195, 4-(benzo[d]thiazol-6-ylamino)-5-[4-(4-fluorophenyl)piperidine-1-carbonyl]-1-methyl-3-nitropyridin-2(1H)-one]
≤ 1000 nM | Cc1ccc(C)c(Nc2c(C(=O)N3CCC(c4ccc(F)cc4)CC3)cn(C)c(=O)c2Cl)c1 [Compound 76, 3-chloro-4-(2,5-dimethylphenylamino)-5-[4-(4-fluorophenyl)piperidine-1-carbonyl]-1-methylpyridin-2(1H)-one]
≤ 1000 nM | Cn1cc(C(=O)N2CCC(c3ccc(F)cc3)CC2)c(Nc2ccc(C#N)cc2F)c(Cl)c1=O [Compound 66, 4-{3-chloro-5-[4-(4-fluorophenyl)piperidine-1-carbonyl]-1-methyl-2-oxo-1,2-dihydropyridin-4-ylamino}-3-fluorobenzonitrile]
≤ 1000 nM | Cn1cc(C(=O)N2CCC(c3ccc(F)cc3)CC2)c(NC2CCCCC2)c(Cl)c1=O [Compound 81, 3-chloro-4-(cyclohexylamino)-5-[4-(4-fluorophenyl)piperidine-1-carbonyl]-1-methylpyridin-2(1H)-one]
≤ 1000 nM | Cn1cc(C(=O)N2CCC(c3ccc(F)cc3)CC2)c(Nc2ccccc2)c(N)c1=O [Compound 219, 3-amino-5-[4-(4-fluorophenyl)piperidine-1-carbonyl]-1-methyl-4-(phenylamino)pyridin-2(1H)-one]
≤ 1000 nM | Cn1cc(C(=O)N2CCC(c3ccc(F)cc3)CC2)c(NCc2ccccc2)c([N+](=O)[O-])c1=O [Compound 216, 4-(benzylamino)-5-[4-(4-fluorophenyl)piperidine-1-carbonyl]-1-methyl-3-nitropyridin-2(1H)-one]
≤ 1000 nM | O=C(c1cn(CCO)c(=O)c(Cl)c1Nc1ccc(F)cc1F)N1CCC(c2ccc(F)cc2)CC1 [Compound 183, 3-chloro-4-(2,4-difluorophenylamino)-5-[4-(4-fluorophenyl)piperidine-1-carbonyl]-1-(2-hydroxyethyl)pyridin-2(1H)-one]
≤ 1000 nM | Cc1ccc(Cl)c(Nc2c(C(=O)N3CCC(c4ccc(F)cc4)CC3)cn(C3CC3)c(=O)c2Cl)c1 [Compound 58, 3-chloro-4-(2-chloro-5-methylphenylamino)-1-cyclopropyl-5-[4-(4-fluorophenyl)piperidine-1-carbonyl]pyridin-2(1H)-one]
≤ 1000 nM | Cn1cc(C(=O)N2CCC(c3ccc(F)cc3)CC2)c(Nc2ccc3c(c2)OCCCO3)c(Cl)c1=O [Compound 180, 3-chloro-4-(3,4-dihydro-2H-benzo[b][1,4]dioxepin-7-ylamino)-5-[4-(4-fluorophenyl)piperidine-1-carbonyl]-1-methylpyridin-2(1H)-one]
≤ 1000 nM | Cn1cc(C(=O)N2CCC(c3ccc(F)cc3)CC2)c(Nc2ccc(Cl)c(C#N)c2)c(Cl)c1=O [Compound 147, 2-chloro-5-{3-chloro-5-[4-(4-fluorophenyl)piperidine-1-carbonyl]-1-methyl-2-oxo-1,2-dihydropyridin-4-ylamino}benzonitrile]
≤ 1000 nM | O=C(c1cn(C2CC2)c(=O)c(Cl)c1Nc1ccc(F)cc1F)N1CCC(c2ccc(F)cc2)CC1 [Compound 71, 3-chloro-1-cyclopropyl-4-(2,4-difluorophenylamino)-5-[4-(4-fluorophenyl)piperidine-1-carbonyl]pyridin-2(1H)-one]
≤ 1000 nM | Cn1cc(C(=O)N2CCC(c3ccc(F)cc3)CC2)c(NCc2ccccc2)c(Cl)c1=O [Compound 42, 4-(benzylamino)-3-chloro-5-[4-(4-fluorophenyl)piperidine-1-carbonyl]-1-methylpyridin-2(1H)-one]
≤ 1000 nM | Cc1cc(F)ccc1Nc1c(C(=O)N2CCC(c3ccc(F)cc3)CC2)cn(Cc2cccnc2)c(=O)c1Cl [Compound 151, 3-chloro-4-(4-fluoro-2-methylphenylamino)-5-[4-(4-fluorophenyl)piperidine-1-carbonyl]-1-(pyridin-3-ylmethyl)pyridin-2(1H)-one]
≤ 1000 nM | Cn1cc(C(=O)N2CCC(c3ccc(F)cc3)CC2)c(Nc2ccc3cnn(C)c3c2)c(F)c1=O [Compound 224, 3-fluoro-5-[4-(4-fluorophenyl)piperidine-1-carbonyl]-1-methyl-4-(1-methyl-1H-indazol-6-ylamino)pyridin-2(1H)-one]
≤ 1000 nM | Cc1ccc(Cl)c(Nc2cc(=O)n(CCN3CCOCC3)cc2C(=O)N2CCC(c3ccc(F)cc3)CC2)c1 [Compound 17, 4-(2-chloro-5-methylphenylamino)-5-[4-(4-fluorophenyl)piperidine-1-carbonyl]-1-(2-morpholinoethyl)pyridin-2(1H)-one]
≤ 1000 nM | COCCn1cc(C(=O)N2CCC(c3ccc(F)cc3)CC2)c(Nc2ccc(F)cc2F)c(Cl)c1=O [Compound 144, 3-chloro-4-(2,4-difluorophenylamino)-5-[4-(4-fluorophenyl)piperidine-1-carbonyl]-1-(2-methoxyethyl)pyridin-2(1H)-one]
